In patent US7071227B2, “Antiviral compositions and methods of use” (The Johns Hopkins University, priority 2000, dated 2006):
Some results were stated once for a whole list of compounds, not compound by compound.

Tested on: H9 cells
Test: MTT cytotoxicity assay
Format: cell-based, human
Conditions: 4 days
Description: The cytotoxicity of M522 and M532 drugs against H9 cells was analyzed using MTT [3-(4,5-dimethylthiazol-2-yl)-2,5-diphenyltetrazolium bromide] assay (Sigma Chemical Co.) (Uckun et al., 1998). Briefly, exponentially growing H9 cells were seeded onto 96-well plates at a density of 3×10^4 cells/well and incubated for 24 h at 37° C. prior to drug exposure. On the day of treatment, a series Of M522 and M532 concentrations (1.25, 2.5, 5, 10, 20, 40, 80, and 160 μg/ ml) were used to test their cytotoxicity in H9 cells. Quadruplicate wells were used for each treatment. The cells were incubated with M522 and M532 for 4 days at 37° C. in a humidified 5% CO2 atmosphere. To each well, 50 μl of MTT (1 mg/ml final concentration) was added and the plates were incubated at 37° C. for 4 h to allow MTT to form formazan crystals by reacting with metabolically active cells. The formazan crystals were solubilized with DMSO. The absorbance of each well was measured in a microtiter reader at optical density 540 nm. The reaction is specific, no significant amounts of formazan can be detected with dead cells.

O=C(/C=C/c1ccc(O)c2c1[C@H](C(=O)O)[C@@H](c1ccc(O)c(O)c1)O2)O[C@H](Cc1ccc(O)c(O)c1)C(=O)O [M522, 4-{2-[1-carboxy-2-(3,4-dihydroxy-phenyl)-ethoxycarbonyl]-vinyl}-2-(3,4-dihydroxy-phenyl)-7-hydroxy-2,3-dihydro-benzofuran-3-carboxylic acid]
CC100; cells remained viable at highest concentration tested: > 160 µg/mL

O=C(/C=C/c1ccc(O)c2c1[C@H](C(=O)O[C@H](Cc1ccc(O)c(O)c1)C(=O)O)[C@@H](c1ccc(O)c(O)c1)O2)O[C@H](Cc1ccc(O)c(O)c1)C(=O)O [M532, 4-{2-[1-carboxy-2-(3,4-dihydroxy-phenyl)-ethoxycarbonyl]-vinyl}-2-(3,4-dihydroxy-phenyl)-7-hydroxy-2,3-dihydro-benzofuran-3-carboxylic acid 1-carboxy-2-(3,4-dihydroxy-phenyl)-ethyl ester]
CC100; cells remained viable at highest concentration tested: > 160 µg/mL
